Source: US20160199463A1, “HDAC2 DEFENDS VASCULAR ENDOTHELIUM FROM INJURY” (The Johns Hopkins University, priority 2014, published 2016)

Test system: Arg2
Assay: Arg2 protein expression in HAECs (Western blot)
Type: cell-based, human
Protocol: After 48 hrs of HAEC cells transfection, cells were lysed in ice cold RIPA lysis buffer consisting of 20 mM Tris-HCl at pH 7.5, 150 mM NaCl, 1 mM EDTA, 1 mM EGTA, 1% NP40, 1% sodium deoxycholate, 1 mM Na3VO4, 2.5 mM sodium pyrophosphate, 1 mM 3-glycerophosphate, 1 μg/mL leupeptin, and a 1:1000 diluted protease inhibitor cocktail (Sigma). For immunoprecipitation studies, whole cell lysate lysates were centrifuged at 14,000×g and supernatants were precleared by incubation with Protein A/G-agarose beads for 2 h at 4° C. with rocking. Agarose beads were then pelleted by centrifugation at 1,000×g. FLAG-Arg2 in precleared lysates were immunoprecipitated by incubation overnight at 4° C. with rocking following addition of anti-FLAG antibody (10 μl). Immune complexes were eluted in 2×SDS sample buffer by boiling for 5 minutes before loading into SDS-PAGE. Western blotting analysis was performed by transferring the SDS gel onto a PVDF membrane and visualized using secondary antibodies conjugated to alkaline phosphatases.

## O=C(CCCCCCC(=O)Nc1ccccc1)NO [SAHA, Suberoylanilide Hydroxamic Acid]
  Arg2 expression, broad-spectrum HDAC inhibitors: upregulated
